Measured values from paper PMC4205886.
No constants are given. Whether binding was seen depends on the method and setting. In cells and extracts the contact can be indirect.

Target: p53, endogenous (human (endogenous in HCT116)) (UniProt P04637)
Test: co-IP; endogenous proteins in HCT116 p53+/+ cell lysates; immunoprecipitation with control IgG, anti-p53 or anti-USP7 antibody and protein A/G agarose, blots for the partners; lysis buffer 50 mM Tris-HCl pH 7.4, 150 mM NaCl, 1 mM EDTA, 1% Triton X-100, 4 °C; cells with or without IR (10 Gy), MG132, ectopic ABRO1, siABRO1 or siUSP7

Row | binding | Substance
1 | no binding | NBA1, endogenous (from UniProt Q9NWV8 1-329)
2 | no binding | BRCC36, endogenous (from UniProt P46736 1-316) (enzyme)
